Measurements: US9512176B2, “Age inhibitors” (Centre National de la Recherche Scientifique, priority 2005, dated 2016)
Some results were stated once for a whole list of compounds, not compound by compound. Non-standard residues stand in square brackets, D forms with d. Residues, ends and D or L forms follow the SMILES beside them. ξ: configuration not given here. Ile(3ξ) = CCC(C)[C@H](N)C(=O)O; Dap = NC[C@H](N)C(=O)O

These molecules were tested on EA.hy 926 cell line (assay: Growth of EA.hy 926 endothelial cells with MG scavengers and/or methylglyoxal (MTT)). Settings: compound alone.
Format: cell-based, human
Method: The cells used for the test are from the EA.hy 926 cell line, which are endothelial cells obtained by the hybridization of human umbilical vein endothelial cells (HUVECs) with lung cancer cells (A549). The EA.hy 926 endothelial cells are incubated in Dulbecco's modified Eagle's Medium (DMEM) enriched with 10% fetal calf serum. The cells are incubated in 12-well plates. Each well initially contains 100,000 cells. Cell growth is achieved by incubating the cells in 2 ml of culture medium after adding or not adding the various potential inhibitors (1 mM) and/or methylglyoxal (600 μM) for 48 hours at 37° C. in a moist atmosphere with 5% CO2.
The number of cells is evaluated in the following way:
The cells are stained using the (4,5-dimethylthiazol-2-yl)-2,5-diphenyltetrazolium bromide (MTT) assay. MTT penetrates in the cell where it is converted into formazan. The quantity of formazan formed is proportional to the number of living cells.
The results are expressed as a relative percentage of the number of cells after treatment compared to the number of control cells without treatment [100*OD (treated cells)/OD (control cells)]. Detection is carried out by UV/visible spectrophotometry at 570 nm.
Principle: MTT (yellow) penetrates the cell and is converted into an insoluble blue compound, formazan, by cleavage of its tetrazolium rings by the mitochondrial dehydrogenase enzymes of living cells. Formazan is solubilized by isopropanol. The number of cells is proportional to the quantity of formazan formed and its absorbance.

Row | SMILES | number of cells lower compared to control cells growing without any product
1 | CC(C)C[C@H](NC(=O)[C@@H](N)CN)C(=O)O [example 1, L-DAPA-L-Leu.2HCl] (H-[Dap]-Leu-OH) | less than 15%
2 | CC(C)C[C@H](NC(=O)[C@@H](N)CN)C(=O)O [example 3, L-DAPA-L-Leu.2TFA] (H-[Dap]-Leu-OH) | less than 15%
3 | CCC(C)[C@H](NC(=O)[C@@H](N)CN)C(=O)O (stereo partly drawn) [example 18, L-DAPA-L-Ile.2HCl] (H-[Dap]-[Ile(3ξ)]-OH) | less than 15%
4 | CC(C)[C@H](NC(=O)[C@@H](N)CN)C(=O)O [example 23, L-DAPA-L-Val.2HCl] (H-[Dap]-Val-OH) | less than 15%
5 | CC(C)[C@H](NC(=O)[C@@H](N)[C@H](N)C(=O)N[C@H](C(=O)O)C(C)C)C(=O)O [example 29, (2S,3S)-DASA-1-L-Val-4-L-Val.2HCl] | less than 15%
